## Cleaved PARP after 72 h of treatment

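Human melanoma cells were exposed to one drug for 72 h in 1,536-well plates and read by automated microscopy after fixing and staining. Values are the share of nuclei positive for cleaved PARP as a percentage of the same share in the DMSO control: 100 is the control level, higher means more apoptosis. Concentrations were fixed for each drug; these are the higher of two levels. These are primary screening values without error estimates. The marker varies much from line to line, for technical or biological reasons.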
This is part of the screen, not chosen by result.

{"drug": "C[C@@H]1CCN(C(=O)CC#N)C[C@@H]1N(C)c1ncnc2[nH]ccc12 at 5 µM", "IPC-298": 109, "LB2518-MEL": 198, "UACC-62": 103, "WM3526": 127, "SK-MEL-30": 46.0}
{"drug": "CN1CCN(c2ccc3nc(-c4c(N)c5c(F)cccc5[nH]c4=O)[nH]c3c2)CC1 at 0.5 µM", "IPC-298": 96.2, "LB2518-MEL": 123, "UACC-62": 76.2, "WM3526": 165, "SK-MEL-30": 195}
{"drug": "CCCCCCCCCCCC1=C(O)C(=O)C=C(O)C1=O at 6 µM", "IPC-298": 77.0, "LB2518-MEL": 118, "UACC-62": 165, "WM3526": 100, "SK-MEL-30": 110}
{"drug": "Oc1nc(-c2ccc(C(F)(F)F)cc2)nc2c1CSCC2 at 10 µM", "IPC-298": 80.8, "LB2518-MEL": 65.3, "UACC-62": 435, "WM3526": 93.6, "SK-MEL-30": 211}
{"drug": "OCc1c[nH]c2ccccc12 at 4 µM", "IPC-298": 341, "LB2518-MEL": 54.8, "UACC-62": 61.9, "WM3526": 40.6, "SK-MEL-30": 72.9}
{"drug": "Cn1cncc1[C@@](N)(c1ccc(Cl)cc1)c1ccc2c(c1)c(-c1cccc(Cl)c1)cc(=O)n2C at 0.05 µM", "IPC-298": 79.2, "LB2518-MEL": 137, "UACC-62": 129, "WM3526": 173, "SK-MEL-30": 40.0}
{"drug": "Cn1cnc2c(F)c(Nc3ccc(Br)cc3Cl)c(C(=O)NOCCO)cc21 at 0.075 µM", "IPC-298": 237, "LB2518-MEL": 136, "UACC-62": 331, "WM3526": 305, "SK-MEL-30": 380}
{"drug": "COC(=O)c1sccc1S(=O)(=O)Nc1ccc(Nc2ccccc2)cc1OC at 5 µM", "IPC-298": 55.1, "LB2518-MEL": 117, "UACC-62": 179, "WM3526": 91.1, "SK-MEL-30": 160}
{"drug": "O=C(Nc1ccccc1)c1cc([N+](=O)[O-])ccc1Cl at 10 µM", "IPC-298": 26.9, "LB2518-MEL": 56.4, "UACC-62": 260, "WM3526": 225, "SK-MEL-30": 177}
{"drug": "CCN(CC)CCCCNc1ncc2cc(-c3cc(OC)cc(OC)c3)c(NC(=O)NC(C)(C)C)nc2n1 at 0.5 µM", "IPC-298": 108, "LB2518-MEL": 175, "UACC-62": 133, "WM3526": 56.3, "SK-MEL-30": 88.3}
{"drug": "O=C(/C=C/c1cccnc1)NCCCCC1CCN(C(=O)c2ccccc2)CC1 at 0.05 µM", "IPC-298": 759, "LB2518-MEL": 938, "UACC-62": 91.2, "WM3526": 65.9, "SK-MEL-30": 72.1}
{"drug": "CO[C@@H]1[C@H](N(C)C(=O)c2ccccc2)C[C@H]2O[C@]1(C)n1c3ccccc3c3c4c(c5c6ccccc6n2c5c31)C(=O)NC4 at 0.4 µM", "IPC-298": 112, "LB2518-MEL": 65.0, "UACC-62": 100, "WM3526": 300, "SK-MEL-30": 134}
{"drug": "O=C(Nc1cccc(Cl)c1)Nc1ncc(CCNc2ncnc3ccsc23)s1 at 0.004 µM", "IPC-298": 256, "LB2518-MEL": 122, "UACC-62": 148, "WM3526": 93.8, "SK-MEL-30": 82.6}
{"drug": "C=C(c1ccc(C(=O)O)cc1)c1cc2c(cc1C)C(C)(C)CCC2(C)C at 10 µM", "IPC-298": 165, "LB2518-MEL": 86.4, "UACC-62": 270, "WM3526": 62.4, "SK-MEL-30": 57.9}
{"drug": "CC[C@]1(O)C[C@H]2CN(CCc3c([nH]c4ccccc34)[C@@](C(=O)OC)(c3cc4c(cc3OC)N(C=O)[C@H]3[C@@](O)(C(=O)OC)[C@H](OC(C)=O)[C@]5(CC)C=CCN6CC[C@]43[C@@H]65)C2)C1 at 0.0005 µM", "IPC-298": 128, "LB2518-MEL": 203, "UACC-62": 192, "WM3526": 356, "SK-MEL-30": 204}
{"drug": "C=CCn1c(=O)c2cnc(Nc3ccc(N4CCN(C)CC4)cc3)nc2n1-c1cccc(C(C)(C)O)n1 at 0.1 µM", "IPC-298": 114, "LB2518-MEL": 320, "UACC-62": 63.1, "WM3526": 169, "SK-MEL-30": 97.1}
{"drug": "COc1cc(Nc2ncc(F)c(Nc3ccc4c(n3)NC(=O)C(C)(C)O4)n2)cc(OC)c1OC at 2 µM", "IPC-298": 40.9, "LB2518-MEL": 177, "UACC-62": 114, "WM3526": 155, "SK-MEL-30": 58.0}
{"drug": "C[C@@H](Oc1cc(-c2cnn(C3CCNCC3)c2)cnc1N)c1c(Cl)ccc(F)c1Cl at 1 µM", "IPC-298": 58.4, "LB2518-MEL": 116, "UACC-62": 112, "WM3526": 229, "SK-MEL-30": 287}
{"drug": "O=c1cc(-c2cccc3c2Sc2ccccc2S3)oc(N2CCOCC2)c1 at 5 µM", "IPC-298": 39.7, "LB2518-MEL": 219, "UACC-62": 166, "WM3526": 256, "SK-MEL-30": 91.8}
{"drug": "O=C(Oc1ccc([N+](=O)[O-])cc1)N1CCC(C(O)(c2ccc3c(c2)OCO3)c2ccc3c(c2)OCO3)CC1 at 5 µM", "IPC-298": 74.8, "LB2518-MEL": 145, "UACC-62": 230, "WM3526": 71.2, "SK-MEL-30": 166}
{"drug": "CC1(C)CCC(c2ccc(Cl)cc2)=C(CN2CCN(c3ccc(C(=O)NS(=O)(=O)c4ccc(N[C@H](CCN5CCOCC5)CSc5ccccc5)c(S(=O)(=O)C(F)(F)F)c4)cc3)CC2)C1 at 2 µM", "IPC-298": 42.8, "LB2518-MEL": 618, "UACC-62": 254, "WM3526": 139, "SK-MEL-30": 645}
{"drug": "Cc1ccc(Nc2nccc(N(C)c3ccc4c(C)n(C)nc4c3)n2)cc1S(N)(=O)=O at 2 µM", "IPC-298": 80.7, "LB2518-MEL": 118, "UACC-62": 110, "WM3526": 47.2, "SK-MEL-30": 95.2}
{"drug": "COc1cc(N2CCC(N3CCN(C)CC3)CC2)ccc1Nc1ncc(Cl)c(Nc2ccccc2S(=O)(=O)C(C)C)n1 at 0.4 µM", "IPC-298": 60.7, "LB2518-MEL": 41.4, "UACC-62": 310, "WM3526": 184, "SK-MEL-30": 124}

Some entries from above, unchanged:

- CCCCCCCCCCCC1=C(O)C(=O)C=C(O)C1=O at 6 µM : IPC-298: 77.0; LB2518-MEL: 118; UACC-62: 165; WM3526: 100; SK-MEL-30: 110
- CC1(C)CCC(c2ccc(Cl)cc2)=C(CN2CCN(c3ccc(C(=O)NS(=O)(=O)c4ccc(N[C@H](CCN5CCOCC5)CSc5ccccc5)c(S(=O)(=O)C(F)(F)F)c4)cc3)CC2)C1 at 2 µM : IPC-298: 42.8; LB2518-MEL: 618; UACC-62: 254; WM3526: 139; SK-MEL-30: 645

Data from the primary screen of doi:10.1371/journal.pone.0140310, rounded.